PubChem BioAssay AID1259273 – Sanger Institute | 2017
This is one part, drawn at random, of 160 reagents. Of all reagents, 36 (22%) got an active call. 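Four distinct siRNA duplexes per gene; each call applies to one duplex and is not gene-level validation across cell lines.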 Reagents against one gene are numbered here. Not all columns of the deposit are shown. Not stated in the record: the amount of reagent, the time to read-out.

Assay: 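Find kinase knock-downs that boost killing of colorectal cancer cells by anchor drugs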 (follow-up of hits)
Cells: human NCI-H630 colorectal cancer cells
Reagents: single siRNA against human genes
Treatment: anchor drugs BYL719 at 1 µM, cetuximab at 5 µg/ml or trametinib at 10 nM, or DMSO vehicle alone
Measurement: 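Viability relative to wells given a non-targeting control pool; synergy score for each anchor drug, weighing combined effect against siRNA only and drug only; replicate means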
Direction: synergy score with trametinib and synergy score with BYL719 and synergy score with cetuximab: higher = stronger synergy, more synthetic lethal
Call rule: 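a duplex counts as synthetic lethal if its averaged synergy score exceeds 0.10 with BYL719, cetuximab or trametinib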

Against RPS6KA4 (GeneID 8986) #1 the deposit lists synergy score with trametinib 0.0452; synergy score with BYL719 = -0.146; synergy score with cetuximab -0.0809; inactive.
RPS6KA4 (GeneID 8986) #2 gave synergy score with trametinib 0.0192; synergy score with BYL719 = -0.0665; synergy score with cetuximab -0.0336; inactive.
With knock-down of RPS6KA4 (GeneID 8986) #3, the screen gave synergy score with trametinib -0.0532; synergy score with BYL719 = -0.0638; synergy score with cetuximab -0.149; inactive.
For RPS6KA4 (GeneID 8986) #4 the deposit lists synergy score with trametinib 0.0362; synergy score with BYL719 = -0.0763; synergy score with cetuximab -0.0954; inactive.
Silencing of CAMK2N1 (GeneID 55450) #1 came out at: synergy score with trametinib -0.103; synergy score with BYL719 = -0.146; synergy score with cetuximab 0.0177; inactive.
CAMK2N1 (GeneID 55450) #2 scored synergy score with trametinib -0.0737; synergy score with BYL719 = -0.0996; synergy score with cetuximab -0.133; inactive.
Against CAMK2N1 (GeneID 55450) #3, the values are synergy score with trametinib -0.163; synergy score with BYL719 = 0.0119; synergy score with cetuximab 0.0694; inactive.
Against CAMK2N1 (GeneID 55450) #4 the deposit lists synergy score with trametinib -0.214; synergy score with BYL719 = -0.16; synergy score with cetuximab -0.114; inactive.
